# PubChem BioAssay AID1259254 – NCATS | 2017
# Test: 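Gene knock-downs that lead to re-replication, shown by excess G2 DNA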 (primary screen)
# Cell system: human HCT116 colorectal cancer cells
# Knock-down reagent: single siRNA against human genes
# Time to read-out: 3 days
# Read-out: 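Imaged Hoechst DNA stain sorts each cell into a cycle phase by DNA amount; per plate, G2 fraction set to 0% for non-targeting and 100% for GMNN siRNA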
# Direction: G2 robust z-score and G2 cells, % of GMNN control: higher = more G2 cells, more excess DNA replication
# Active means: 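An siRNA counts as active if its G2 robust z-score lies at least 5 MADs above the screen median; here such calls match roughly 38% of GMNN control or more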
# This is a random part of about 59,000 reagents tested. Over the whole deposit, about 1,550 (2.6%) got an active call. 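G2 share is only a proxy for re-replication; each gene was hit by three separate siRNAs, and active genes were retested.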 The numbers tell different reagents against one gene apart. Further read-outs or replicates are left out here. Not given: the amount of reagent.
target,reagent,G2 robust z-score,"G2 cells, % of GMNN control",Call
NUCKS1,1,2.35,19.5,inactive
NUCKS1,2,-0.0655,2.51,inactive
NUCKS1,3,-0.531,-0.77,inactive
PPP1R17,1,0.257,4.78,inactive
PPP1R17,2,-0.314,0.759,inactive
PPP1R17,3,0.452,6.15,inactive
TGFBR3,1,-0.633,-1.49,inactive
TGFBR3,2,0.597,7.17,inactive
TGFBR3,3,0.827,8.78,inactive
SRGAP2C,1,-0.104,2.23,inactive
SRGAP2C,2,-0.742,-2.26,inactive
SRGAP2C,3,0.724,8.06,inactive
PITX1,1,0.149,4.01,inactive
PITX1,2,-0.944,-3.68,inactive
PITX1,3,0.14,3.95,inactive
C8orf74,1,0.0103,3.04,inactive
C8orf74,2,-0.354,0.48,inactive
C8orf74,3,0.0848,3.56,inactive
APOBEC3H,1,3.18,25.3,inactive
APOBEC3H,2,4.17,32.3,inactive
APOBEC3H,3,2.69,21.9,inactive
ALG1L3P,1,1.2,11.4,inactive
ALG1L3P,2,-0.264,1.11,inactive
ALG1L3P,3,0.501,6.5,inactive
PPIG,1,0.0811,3.54,inactive
PPIG,2,0.337,5.34,inactive
PPIG,3,-0.061,2.54,inactive
METTL25,1,0.453,6.16,inactive
METTL25,2,0.0466,3.3,inactive
METTL25,3,-0.792,-2.61,inactive
RHBDF2,1,0.171,4.17,inactive
RHBDF2,2,2.93,23.6,inactive
RHBDF2,3,0.525,6.66,inactive
TBL3,1,5.26,40,active
TBL3,2,1.72,15,inactive
TBL3,3,0.201,4.38,inactive
LINC02694,1,-1.14,-5.05,inactive
LINC02694,2,1.19,11.4,inactive
LINC02694,3,0.294,5.03,inactive
TNIP3,1,-0.608,-1.31,inactive
TNIP3,2,-0.0161,2.85,inactive
TNIP3,3,-0.654,-1.64,inactive
CDC42BPG,1,1.85,16,inactive
CDC42BPG,2,1.99,17,inactive
CDC42BPG,3,-0.266,1.09,inactive
LRRN4,1,0.121,3.82,inactive
LRRN4,2,-0.472,-0.354,inactive
LRRN4,3,-1.05,-4.42,inactive
GDF15,1,-0.769,-2.45,inactive
GDF15,2,2.12,17.9,inactive
GDF15,3,-0.291,0.922,inactive
TEX10,1,-0.0154,2.86,inactive
TEX10,2,0.0398,3.25,inactive
TEX10,3,-0.68,-1.82,inactive
TUBGCP6,1,0.815,8.7,inactive
TUBGCP6,2,2.74,22.2,inactive
TUBGCP6,3,3.86,30.1,inactive
LCMT2,1,3.02,24.2,inactive
LCMT2,2,-0.258,1.15,inactive
LCMT2,3,-0.422,0.000794,inactive
CPAMD8,1,-0.00577,2.93,inactive
CPAMD8,2,0.614,7.29,inactive
CPAMD8,3,3.48,27.5,inactive
NOX1,1,-0.855,-3.04,inactive
NOX1,2,-0.599,-1.25,inactive
NOX1,3,2.65,21.6,inactive
EMILIN3,1,3.11,24.9,inactive
EMILIN3,2,2.41,19.9,inactive
EMILIN3,3,0.36,5.5,inactive

Hits (from the list above):
target,reagent,G2 robust z-score,"G2 cells, % of GMNN control",Call
TBL3,1,5.26,40,active
